Results deposited as PubChem BioAssay AID1259258 (Sanger Institute, 2017).

Aim: 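Single siRNAs acting synergistically with drugs against colorectal cancer cells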 (follow-up of hits)
Cells: human SW48 colorectal cancer cells
Reagents: single siRNA against human genes
Conditions: anchor drug cetuximab 5 µg/ml, trametinib 10 nM or BYL719 1 µM, or DMSO vehicle alone; assay length not stated
Measurement: 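Synergy score per drug compares siRNA-plus-drug effect with each agent alone; viability, relative to non-targeting pool 2 and replicate-averaged, uses DMSO, cetuximab 5 µg/ml, trametinib 10 nM or BYL719 1 µM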
Direction: synergy score with trametinib and synergy score with BYL719 and synergy score with cetuximab: higher = stronger synergy, more killing than expected
Call rule: 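Hit when the synergy score is above 0.10 for at least one of trametinib, BYL719 or cetuximab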
The deposit covers 160 reagents; this is a random part of them. 40 of all reagents (25%) count as active. 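Each row is one of four siRNAs per gene; a gene counts as confirmed only when several of its siRNAs show synergy.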 The numbers tell different reagents against one gene apart. Not all columns of the deposit are shown. Not stated in the record: the amount of reagent, the time to read-out.

| gene | siRNA no. | synergy score with trametinib | synergy score with BYL719 | synergy score with cetuximab | activity call |
| --- | --- | --- | --- | --- | --- |
| CSNK2A2 (casein kinase 2 alpha 2) | 1 | -0.141 | -0.258 | -0.227 | inactive |
| CSNK2A2 (casein kinase 2 alpha 2) | 2 | -0.127 | -0.032 | -0.0931 | inactive |
| CSNK2A2 (casein kinase 2 alpha 2) | 3 | -0.0282 | -0.105 | -0.0622 | inactive |
| CSNK2A2 (casein kinase 2 alpha 2) | 4 | 0.166 | -0.101 | 0.00704 | active |
| IKBKB (inhibitor of nuclear factor kappa B kinase subunit beta) | 1 | 0.142 | -0.164 | -0.0455 | active |
| IKBKB (inhibitor of nuclear factor kappa B kinase subunit beta) | 2 | -0.0544 | -0.112 | -0.0362 | inactive |
| IKBKB (inhibitor of nuclear factor kappa B kinase subunit beta) | 3 | -0.00418 | -0.13 | 0.0429 | inactive |
| IKBKB (inhibitor of nuclear factor kappa B kinase subunit beta) | 4 | -0.0623 | -0.0925 | -0.137 | inactive |
| PINK1 (PTEN induced kinase 1) | 1 | -0.0624 | -0.23 | -0.00486 | inactive |
| PINK1 (PTEN induced kinase 1) | 2 | 0.126 | 0.035 | -0.0488 | active |
| PINK1 (PTEN induced kinase 1) | 3 | 0.0157 | 0.035 | -0.0215 | inactive |
| PINK1 (PTEN induced kinase 1) | 4 | 0.106 | -0.0674 | -0.0251 | active |
| PFKFB3 (6-phosphofructo-2-kinase/fructose-2,6-biphosphatase 3) | 1 | 0.0294 | -0.053 | -0.0857 | inactive |
| PFKFB3 (6-phosphofructo-2-kinase/fructose-2,6-biphosphatase 3) | 2 | -0.00421 | 0.0172 | 0.0239 | inactive |
| PFKFB3 (6-phosphofructo-2-kinase/fructose-2,6-biphosphatase 3) | 3 | -0.173 | -0.0465 | -0.0207 | inactive |
| PFKFB3 (6-phosphofructo-2-kinase/fructose-2,6-biphosphatase 3) | 4 | 0.00604 | 0.0945 | 0.0776 | inactive |
| PIK3CA | 1 | 0.251 | -0.0603 | 0.132 | active |
| PIK3CA | 2 | 0.0113 | -0.163 | -0.0442 | inactive |
| PIK3CA | 3 | 0.205 | -0.0718 | 0.028 | active |
| PIK3CA | 4 | -0.0832 | -0.292 | 0.0328 | inactive |
| SF3B1 (splicing factor 3b subunit 1) | 1 | -0.0515 | -0.063 | -0.0138 | inactive |
| SF3B1 (splicing factor 3b subunit 1) | 2 | -0.00341 | -0.0603 | -0.0747 | inactive |
| SF3B1 (splicing factor 3b subunit 1) | 3 | 0.0759 | -0.0739 | -0.062 | inactive |
| SF3B1 (splicing factor 3b subunit 1) | 4 | 0.0604 | -0.0659 | -0.0115 | inactive |

Laid out differently: 8 of the entries above.
{"gene":"PFKFB3 (6-phosphofructo-2-kinase/fructose-2,6-biphosphatase 3)","siRNA no.":2,"synergy score with trametinib":-0.00421,"synergy score with BYL719":0.0172,"synergy score with cetuximab":0.0239,"activity call":"inactive"}
{"gene":"PFKFB3 (6-phosphofructo-2-kinase/fructose-2,6-biphosphatase 3)","siRNA no.":3,"synergy score with trametinib":-0.173,"synergy score with BYL719":-0.0465,"synergy score with cetuximab":-0.0207,"activity call":"inactive"}
{"gene":"PFKFB3 (6-phosphofructo-2-kinase/fructose-2,6-biphosphatase 3)","siRNA no.":4,"synergy score with trametinib":0.00604,"synergy score with BYL719":0.0945,"synergy score with cetuximab":0.0776,"activity call":"inactive"}
{"gene":"PIK3CA","siRNA no.":1,"synergy score with trametinib":0.251,"synergy score with BYL719":-0.0603,"synergy score with cetuximab":0.132,"activity call":"active"}
{"gene":"PIK3CA","siRNA no.":2,"synergy score with trametinib":0.0113,"synergy score with BYL719":-0.163,"synergy score with cetuximab":-0.0442,"activity call":"inactive"}
{"gene":"PIK3CA","siRNA no.":3,"synergy score with trametinib":0.205,"synergy score with BYL719":-0.0718,"synergy score with cetuximab":0.028,"activity call":"active"}
{"gene":"PIK3CA","siRNA no.":4,"synergy score with trametinib":-0.0832,"synergy score with BYL719":-0.292,"synergy score with cetuximab":0.0328,"activity call":"inactive"}
{"gene":"SF3B1 (splicing factor 3b subunit 1)","siRNA no.":1,"synergy score with trametinib":-0.0515,"synergy score with BYL719":-0.063,"synergy score with cetuximab":-0.0138,"activity call":"inactive"}

Further results:
| gene | siRNA no. | synergy score with trametinib | synergy score with BYL719 | synergy score with cetuximab | activity call |
| --- | --- | --- | --- | --- | --- |
| CAMK2N1 (calcium/calmodulin dependent protein kinase II inhibitor 1) | 1 | 0.0302 | -0.171 | -0.173 | inactive |
| CAMK2N1 (calcium/calmodulin dependent protein kinase II inhibitor 1) | 2 | -0.173 | 0.37 | -0.222 | active |
| CAMK2N1 (calcium/calmodulin dependent protein kinase II inhibitor 1) | 3 | -0.225 | -0.132 | -0.0876 | inactive |
| CAMK2N1 (calcium/calmodulin dependent protein kinase II inhibitor 1) | 4 | -0.118 | -0.254 | -0.265 | inactive |
| IRAK3 (interleukin 1 receptor associated kinase 3) | 1 | 0.0183 | -0.0226 | -0.0383 | inactive |
| IRAK3 (interleukin 1 receptor associated kinase 3) | 2 | -0.123 | -0.114 | -0.228 | inactive |
| IRAK3 (interleukin 1 receptor associated kinase 3) | 3 | -0.0953 | -0.0607 | -0.238 | inactive |
| IRAK3 (interleukin 1 receptor associated kinase 3) | 4 | -0.053 | -0.153 | -0.171 | inactive |
| MAP3K8 (mitogen-activated protein kinase kinase kinase 8) | 1 | -0.111 | -0.0349 | -0.259 | inactive |
| MAP3K8 (mitogen-activated protein kinase kinase kinase 8) | 2 | 0.0336 | 0 | 0.0279 | inactive |
| MAP3K8 (mitogen-activated protein kinase kinase kinase 8) | 3 | -0.0666 | -0.142 | -0.129 | inactive |
| MAP3K8 (mitogen-activated protein kinase kinase kinase 8) | 4 | -0.142 | -0.0382 | -0.0171 | inactive |
| CDKN2D (cyclin dependent kinase inhibitor 2D) | 1 | 0.212 | -0.0304 | 0.0789 | active |
| CDKN2D (cyclin dependent kinase inhibitor 2D) | 2 | 0.173 | 0.0694 | 0.015 | active |
| CDKN2D (cyclin dependent kinase inhibitor 2D) | 3 | -0.0898 | -0.151 | -0.0325 | inactive |
| CDKN2D (cyclin dependent kinase inhibitor 2D) | 4 | 0.0779 | 0.0116 | -0.0482 | inactive |
| COASY (Coenzyme A synthase) | 1 | 0.00121 | -0.0147 | -0.071 | inactive |
| COASY (Coenzyme A synthase) | 2 | -0.178 | -0.136 | -0.223 | inactive |
| COASY (Coenzyme A synthase) | 3 | 0.145 | -0.022 | -0.033 | active |
| COASY (Coenzyme A synthase) | 4 | -0.0293 | -0.125 | -0.232 | inactive |
| STK36 (serine/threonine kinase 36) | 1 | 0.00895 | -0.0473 | -0.0668 | inactive |
| STK36 (serine/threonine kinase 36) | 2 | -0.244 | -0.2 | -0.227 | inactive |
| STK36 (serine/threonine kinase 36) | 3 | 0.114 | -0.0982 | -0.22 | active |
| STK36 (serine/threonine kinase 36) | 4 | -0.168 | -0.194 | -0.192 | inactive |
| CRIM1 (cysteine rich transmembrane BMP regulator 1) | 1 | -0.00114 | -0.214 | -0.274 | inactive |
| CRIM1 (cysteine rich transmembrane BMP regulator 1) | 2 | -0.0295 | -0.132 | -0.192 | inactive |
| CRIM1 (cysteine rich transmembrane BMP regulator 1) | 3 | -0.0265 | 0.0586 | -0.0557 | inactive |
| CRIM1 (cysteine rich transmembrane BMP regulator 1) | 4 | 0.0853 | -0.172 | -0.0596 | inactive |
| MPP3 (MAGUK p55 scaffold protein 3) | 1 | 0.0555 | 0.0535 | -0.0791 | inactive |
| MPP3 (MAGUK p55 scaffold protein 3) | 2 | 0.344 | -0.00325 | 0.0305 | active |
| MPP3 (MAGUK p55 scaffold protein 3) | 3 | 0.192 | 0.189 | -0.0267 | active |
| MPP3 (MAGUK p55 scaffold protein 3) | 4 | 0.182 | 0.0401 | 0.0256 | active |
| HSPB8 (heat shock protein family B (small) member 8) | 1 | 0.235 | 0.116 | 0.0273 | active |
| HSPB8 (heat shock protein family B (small) member 8) | 2 | -0.0849 | -0.131 | -0.118 | inactive |
| HSPB8 (heat shock protein family B (small) member 8) | 3 | -0.00543 | -0.121 | -0.207 | inactive |
| HSPB8 (heat shock protein family B (small) member 8) | 4 | 0.0894 | -0.0382 | -0.041 | inactive |
| AK2 (adenylate kinase 2) | 1 | 0.11 | -0.0511 | 0.166 | active |
| AK2 (adenylate kinase 2) | 2 | 0.0443 | 0.00619 | -0.0694 | inactive |
| AK2 (adenylate kinase 2) | 3 | -0.0893 | -0.167 | -0.274 | inactive |
| AK2 (adenylate kinase 2) | 4 | 0.0886 | 0.0432 | -0.0386 | inactive |
